The structures given here were assigned with low confidence; some may be wrong.
What was measured:
[1] = test system: Akt phosphorylated at Thr308 in PC-3 cells; test: Cellular assay: phosphorylation of Akt (Thr308) in PC-3 cells, MSD ELISA; conditions: read-out: IC50 pAkt_Thr308, 60 min compound incubation
Method: (§1) Cellular activity of PI3Kβ inhibitors was determined by quantifying the phosphorylation of Akt in PC-3 cells. Akt phosphorylated at Ser473 and Thr308 were measured using an enzyme-linked immunosorbent assay (ELISA; Meso Scale Discovery (MSD), Gaithersburg, Md.) and specific primary antibodies from MSD.
(§2) On day 1, PC3 cells (ATCC #[…]) were seeded into PerkinElmer MW96 plates at 25.000 cells per well, in 75 μl complete culture medium (DMEM high glucose, AQmedia™, D0819, Sigma-Aldrich) containing 10% heat inactivated FCS and incubated at 37° C., […] during 24 hours. On day 2, compound or DMSO (0.3%) was added and cells were further incubated for 60 min at 37° C., 5% CO2 in a total volume of 100 μl of medium. […]
(§3) Briefly, at the end of the cell treatment period, media were removed by aspiration and adherent cells were lysed in 50 μl ice-cold lysis buffer. […] The signals were detected using an MSD SECTOR Imager 6000 and are proportional to the phospho-Akt titres.
(§4) Data were processed. The percentage of inhibition was plotted against the log concentration of test compounds, and the sigmoidal log concentration-effect curve of best fit was calculated by nonlinear regression analysis. From these concentration-response curves, the IC50 values were calculated. […]

Chains of the proteins cited; added tags and fusions are not shown. Lines headed by an entry give the natural chain unless they say otherwise; changes in a name come on top.
UniProt P42338, whole entry: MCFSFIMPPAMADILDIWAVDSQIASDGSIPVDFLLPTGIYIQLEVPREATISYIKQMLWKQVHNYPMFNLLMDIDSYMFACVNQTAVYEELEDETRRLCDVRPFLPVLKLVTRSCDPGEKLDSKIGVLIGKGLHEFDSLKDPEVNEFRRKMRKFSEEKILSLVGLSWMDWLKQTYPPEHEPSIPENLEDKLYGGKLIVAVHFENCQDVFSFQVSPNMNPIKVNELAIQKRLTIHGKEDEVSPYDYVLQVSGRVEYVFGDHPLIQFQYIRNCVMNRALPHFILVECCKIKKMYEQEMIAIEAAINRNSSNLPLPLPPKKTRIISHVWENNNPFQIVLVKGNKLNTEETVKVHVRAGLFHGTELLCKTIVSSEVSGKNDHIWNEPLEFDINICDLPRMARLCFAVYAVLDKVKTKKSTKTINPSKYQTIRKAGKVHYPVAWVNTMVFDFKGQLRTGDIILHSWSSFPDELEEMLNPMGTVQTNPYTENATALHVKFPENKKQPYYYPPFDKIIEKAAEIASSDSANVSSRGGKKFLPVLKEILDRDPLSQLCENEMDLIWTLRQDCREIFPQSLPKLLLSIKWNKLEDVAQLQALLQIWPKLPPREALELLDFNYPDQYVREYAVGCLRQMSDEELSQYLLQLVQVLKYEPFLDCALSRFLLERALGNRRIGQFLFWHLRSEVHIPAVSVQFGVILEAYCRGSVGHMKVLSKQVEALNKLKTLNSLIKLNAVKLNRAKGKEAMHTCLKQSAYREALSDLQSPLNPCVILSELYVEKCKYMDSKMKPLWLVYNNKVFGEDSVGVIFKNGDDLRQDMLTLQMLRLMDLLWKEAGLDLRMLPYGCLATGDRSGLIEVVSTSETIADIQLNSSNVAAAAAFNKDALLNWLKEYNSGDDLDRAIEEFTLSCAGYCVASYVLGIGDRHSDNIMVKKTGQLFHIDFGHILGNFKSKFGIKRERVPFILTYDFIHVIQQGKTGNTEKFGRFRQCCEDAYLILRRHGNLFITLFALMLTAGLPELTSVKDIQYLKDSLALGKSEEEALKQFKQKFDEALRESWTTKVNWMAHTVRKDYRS
UniProt O00329, whole entry: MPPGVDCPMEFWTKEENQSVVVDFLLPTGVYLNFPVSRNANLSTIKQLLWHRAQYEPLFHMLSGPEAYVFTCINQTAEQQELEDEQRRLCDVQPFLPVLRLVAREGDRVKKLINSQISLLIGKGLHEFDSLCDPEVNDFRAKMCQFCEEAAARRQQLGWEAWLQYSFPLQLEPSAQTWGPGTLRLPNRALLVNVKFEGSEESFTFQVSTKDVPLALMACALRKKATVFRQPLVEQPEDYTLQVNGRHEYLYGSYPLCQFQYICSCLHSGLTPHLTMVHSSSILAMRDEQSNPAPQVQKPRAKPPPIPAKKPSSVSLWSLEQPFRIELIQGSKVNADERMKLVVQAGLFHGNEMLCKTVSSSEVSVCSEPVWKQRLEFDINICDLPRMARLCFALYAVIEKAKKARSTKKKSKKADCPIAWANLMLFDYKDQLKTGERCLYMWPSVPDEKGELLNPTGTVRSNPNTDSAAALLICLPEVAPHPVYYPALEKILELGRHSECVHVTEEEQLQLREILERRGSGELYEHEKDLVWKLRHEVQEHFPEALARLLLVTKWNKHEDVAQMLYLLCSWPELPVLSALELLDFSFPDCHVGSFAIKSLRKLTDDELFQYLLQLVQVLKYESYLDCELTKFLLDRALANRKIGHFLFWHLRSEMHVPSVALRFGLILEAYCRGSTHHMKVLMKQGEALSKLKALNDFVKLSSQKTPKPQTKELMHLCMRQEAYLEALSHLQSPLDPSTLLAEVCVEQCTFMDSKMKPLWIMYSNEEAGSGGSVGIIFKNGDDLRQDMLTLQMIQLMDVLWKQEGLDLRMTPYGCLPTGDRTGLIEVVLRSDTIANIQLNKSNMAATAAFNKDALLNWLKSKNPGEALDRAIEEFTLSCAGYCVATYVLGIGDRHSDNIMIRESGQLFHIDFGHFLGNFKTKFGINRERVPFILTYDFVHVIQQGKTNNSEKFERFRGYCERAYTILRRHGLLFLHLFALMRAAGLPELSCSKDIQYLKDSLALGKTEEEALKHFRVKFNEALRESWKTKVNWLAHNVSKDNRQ
UniProt P42336, whole entry: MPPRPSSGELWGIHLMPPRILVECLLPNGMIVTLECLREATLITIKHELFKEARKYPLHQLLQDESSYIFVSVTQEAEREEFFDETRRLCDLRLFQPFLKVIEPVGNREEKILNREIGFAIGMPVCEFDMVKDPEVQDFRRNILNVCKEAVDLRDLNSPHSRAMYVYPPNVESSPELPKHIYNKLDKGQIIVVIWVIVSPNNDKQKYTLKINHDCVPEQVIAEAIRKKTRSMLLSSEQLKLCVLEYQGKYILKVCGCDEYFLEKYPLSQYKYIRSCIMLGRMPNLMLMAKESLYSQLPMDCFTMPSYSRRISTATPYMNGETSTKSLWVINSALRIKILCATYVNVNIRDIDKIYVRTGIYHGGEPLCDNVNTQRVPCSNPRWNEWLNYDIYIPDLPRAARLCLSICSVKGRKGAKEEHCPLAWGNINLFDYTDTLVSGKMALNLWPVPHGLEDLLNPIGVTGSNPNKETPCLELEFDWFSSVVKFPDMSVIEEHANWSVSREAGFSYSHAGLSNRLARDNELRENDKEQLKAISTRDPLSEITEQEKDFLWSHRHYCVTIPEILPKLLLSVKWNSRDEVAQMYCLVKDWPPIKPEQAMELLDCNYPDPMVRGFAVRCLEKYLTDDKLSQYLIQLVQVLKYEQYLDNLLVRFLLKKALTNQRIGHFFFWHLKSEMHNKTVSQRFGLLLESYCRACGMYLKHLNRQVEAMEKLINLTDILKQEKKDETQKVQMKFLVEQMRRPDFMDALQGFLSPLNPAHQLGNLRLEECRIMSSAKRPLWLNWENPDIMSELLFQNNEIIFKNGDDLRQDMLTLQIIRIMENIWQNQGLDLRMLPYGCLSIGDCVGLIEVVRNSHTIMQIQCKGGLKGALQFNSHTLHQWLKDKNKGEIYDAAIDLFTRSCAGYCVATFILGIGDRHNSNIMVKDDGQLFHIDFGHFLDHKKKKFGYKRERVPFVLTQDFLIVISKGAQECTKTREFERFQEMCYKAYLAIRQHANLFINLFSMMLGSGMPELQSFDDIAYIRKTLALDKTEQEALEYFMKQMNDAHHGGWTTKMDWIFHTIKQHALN
UniProt P48736, whole entry: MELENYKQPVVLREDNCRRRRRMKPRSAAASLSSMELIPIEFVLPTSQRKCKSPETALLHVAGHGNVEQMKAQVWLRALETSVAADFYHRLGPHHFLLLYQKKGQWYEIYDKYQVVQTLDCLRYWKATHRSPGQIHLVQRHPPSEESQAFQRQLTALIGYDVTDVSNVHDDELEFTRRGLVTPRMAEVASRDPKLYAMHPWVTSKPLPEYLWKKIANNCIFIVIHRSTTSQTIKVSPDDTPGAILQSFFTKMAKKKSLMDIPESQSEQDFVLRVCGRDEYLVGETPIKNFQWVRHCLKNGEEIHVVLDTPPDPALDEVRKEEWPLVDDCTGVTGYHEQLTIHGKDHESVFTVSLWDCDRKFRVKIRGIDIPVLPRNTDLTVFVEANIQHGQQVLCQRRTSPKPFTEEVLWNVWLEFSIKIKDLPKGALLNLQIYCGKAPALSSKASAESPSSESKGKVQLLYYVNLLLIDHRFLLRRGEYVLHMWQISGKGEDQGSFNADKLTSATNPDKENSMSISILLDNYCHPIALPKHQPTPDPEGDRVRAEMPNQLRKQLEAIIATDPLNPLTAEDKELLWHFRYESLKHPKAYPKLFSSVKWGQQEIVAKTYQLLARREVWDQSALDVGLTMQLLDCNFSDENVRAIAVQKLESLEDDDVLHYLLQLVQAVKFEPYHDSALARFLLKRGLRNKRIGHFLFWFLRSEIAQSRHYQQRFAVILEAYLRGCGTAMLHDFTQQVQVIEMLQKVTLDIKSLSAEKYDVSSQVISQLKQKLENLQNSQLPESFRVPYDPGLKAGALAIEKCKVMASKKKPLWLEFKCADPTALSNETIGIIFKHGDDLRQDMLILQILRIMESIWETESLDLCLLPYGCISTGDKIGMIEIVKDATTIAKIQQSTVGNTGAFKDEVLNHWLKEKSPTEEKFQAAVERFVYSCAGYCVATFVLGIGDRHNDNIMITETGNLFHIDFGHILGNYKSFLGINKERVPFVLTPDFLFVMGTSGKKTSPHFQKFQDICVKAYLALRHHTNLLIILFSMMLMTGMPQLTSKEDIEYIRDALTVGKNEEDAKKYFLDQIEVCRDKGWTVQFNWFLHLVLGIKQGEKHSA

PIK3Cβ_h = PIK3Cβ_h (Homo sapiens, UniProt P42338); test: Enzyme binding assay (KINOMEscan); conditions: read-out: Kd PIK3Cβ_h, DiscoveRx
Method: (§5) Enzyme Binding Assays (KINOMEscan®)
(§6) Kinase enzyme binding affinities of compounds disclosed herein were determined using the KINOMEscan technology performed by DiscoveRx Corporation, San Diego, Calif., USA (www.kinomescan.com). Table A reports the obtained Kd values (nM), with the Kd being the inhibitor binding constant: […]

PIK3Cδ_h = PIK3Cδ_h (Homo sapiens, UniProt O00329); test: Enzyme binding assay (KINOMEscan); conditions: read-out: Kd PIK3Cδ_h, DiscoveRx
Method: as §5, §6

PIK3Cα_h = PIK3Cα_h (Homo sapiens, UniProt P42336); test: Enzyme binding assay (KINOMEscan); conditions: read-out: Kd PIK3Cα_h, DiscoveRx
Method: as §5, §6

PIK3Cγ_h = PIK3Cγ_h (Homo sapiens, UniProt P48736); test: Enzyme binding assay (KINOMEscan); conditions: read-out: Kd PIK3Cγ_h, DiscoveRx
Method: as §5, §6

MTOR_h = MTOR_h (Homo sapiens, UniProt P42345); test: Enzyme binding assay (KINOMEscan); conditions: read-out: Kd MTOR_h, DiscoveRx
Method: as §5, §6

[2] = test system: Akt phosphorylated at Ser473 in PC-3 cells; test: Cellular assay: phosphorylation of Akt (Ser473) in PC-3 cells, MSD ELISA; conditions: read-out: IC50 pAkt_S473, 60 min compound incubation
Method: as §1, §2, §3, §4

- IC50 [1]: 83 nM
- Kd (PIK3Cβ_h): 13 nM
- Kd (PIK3Cδ_h): 794 nM
- Kd (PIK3Cα_h): 5.37 µM
- Kd (PIK3Cγ_h): 17 µM
- Kd (MTOR_h): 17.8 µM
- IC50 [2]: 182 nM
Structure (SMILES): Cc1c(Cc2c(CO)nc3ccc(N4CCOCC4)cn23)cccc1C(F)(F)F
